Test results: US12612389B2, “Benzofuran-based N-acylhydrazone derivative and pharmaceutical composition comprising same” (KOREA RESEARCH INSTITUTE OF BIOSCIENCE AND BIOTECHNOLOGY, priority 2019, dated 2026)

Legend:
Assay type in all cases: cell-based
[1] = test system: MCF7/ADR; test: Anti-proliferative activity test in cancer cells exhibiting multidrug resistance (MTT); settings: Homo sapiens, NCI/ADR-RES, 96 h
Method: (§1) HeLa cells (American Type Culture Collection: ATCC, USA), a human cervical cancer cell line, were seeded in a 96-well plate at 3×10^3 cells/well, and the cells were then treated with compounds of Examples or Comparative Example according to the present invention and grown for 2 days. Then, MTT (3-(4,5-dimethylthiazol-2-yl)-2,5-diphenyltetrazolium bromide) reagent was added at 10 μL/well. […] The data shown in Table below are mean values of results obtained by repeating the analysis twice. Specifically, K562 and MCF7 (Bio Evaluation Center, Korea Research Institute of Bioscience and Biotechnology, Korea) and multidrug-resistant cell lines of each of these cell lines, i.e., K562/ADR and MCF7/ADR (Bio Evaluation Center, Korea Research Institute of Bioscience and Biotechnology, Korea), were cultured on microtiter plates (1-3×10^3 cells/well). […] The data shown in Table below are mean values of results obtained by repeating the analysis three times.

[2] = test system: MCF7; test: Anti-proliferative activity test in cancer cells exhibiting multidrug resistance (MTT), parent line; settings: Homo sapiens, MCF7, 96 h
Method: as §1

[3] = test system: K562; test: as above; settings: Homo sapiens, K562, 96 h
Method: as §1

## COc1cc2c(c(OC)c1OC)-c1ccc(OC)c(=O)cc1[C@@H](NC(C)=O)CC2 [Colchicine, colchicine]
[1]
  IC50: 92.5 nM
[2]
  IC50: 2.71 nM
[3]
  IC50: 15.9 nM
